Results taken from the supplement of paper PMC10849652.
The list shows a part of the results.

Amino acid sequences for entries named in this document (tags omitted). A change or cut given only in a name is not applied to a line headed by its entry.
UniProt Q9P0L0: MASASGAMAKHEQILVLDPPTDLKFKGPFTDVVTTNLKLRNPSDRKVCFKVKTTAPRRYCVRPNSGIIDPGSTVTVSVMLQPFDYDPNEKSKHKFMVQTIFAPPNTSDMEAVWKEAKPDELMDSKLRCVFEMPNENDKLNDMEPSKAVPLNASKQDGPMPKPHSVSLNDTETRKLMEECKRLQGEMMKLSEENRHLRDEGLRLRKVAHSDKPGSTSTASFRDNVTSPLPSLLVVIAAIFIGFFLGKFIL
UniProt Q9NWZ5: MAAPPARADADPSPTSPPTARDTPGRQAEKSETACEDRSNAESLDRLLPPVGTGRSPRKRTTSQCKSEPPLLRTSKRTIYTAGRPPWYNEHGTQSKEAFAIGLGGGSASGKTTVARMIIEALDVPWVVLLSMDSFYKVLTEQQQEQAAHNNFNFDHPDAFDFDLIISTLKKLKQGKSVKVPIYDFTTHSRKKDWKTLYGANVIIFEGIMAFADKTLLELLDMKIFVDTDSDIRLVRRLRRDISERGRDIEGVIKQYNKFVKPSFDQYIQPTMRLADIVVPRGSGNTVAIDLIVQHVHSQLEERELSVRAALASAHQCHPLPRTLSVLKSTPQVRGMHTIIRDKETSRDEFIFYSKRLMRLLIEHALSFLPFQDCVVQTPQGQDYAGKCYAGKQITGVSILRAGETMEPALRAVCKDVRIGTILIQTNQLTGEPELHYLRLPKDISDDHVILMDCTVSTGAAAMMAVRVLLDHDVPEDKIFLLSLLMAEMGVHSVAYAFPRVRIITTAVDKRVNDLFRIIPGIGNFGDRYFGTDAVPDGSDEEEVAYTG
UniProt P31930: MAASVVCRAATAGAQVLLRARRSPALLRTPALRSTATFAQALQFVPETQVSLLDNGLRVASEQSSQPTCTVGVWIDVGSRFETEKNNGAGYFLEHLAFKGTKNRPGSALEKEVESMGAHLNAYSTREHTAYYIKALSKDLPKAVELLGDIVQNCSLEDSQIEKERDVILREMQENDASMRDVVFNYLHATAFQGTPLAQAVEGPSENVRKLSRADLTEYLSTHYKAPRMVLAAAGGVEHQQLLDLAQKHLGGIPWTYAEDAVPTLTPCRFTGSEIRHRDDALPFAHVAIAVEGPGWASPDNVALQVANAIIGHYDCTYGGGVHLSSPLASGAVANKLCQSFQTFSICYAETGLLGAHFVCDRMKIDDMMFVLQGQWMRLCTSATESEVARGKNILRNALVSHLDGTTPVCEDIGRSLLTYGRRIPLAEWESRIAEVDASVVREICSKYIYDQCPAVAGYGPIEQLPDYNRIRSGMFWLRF
UniProt O14562: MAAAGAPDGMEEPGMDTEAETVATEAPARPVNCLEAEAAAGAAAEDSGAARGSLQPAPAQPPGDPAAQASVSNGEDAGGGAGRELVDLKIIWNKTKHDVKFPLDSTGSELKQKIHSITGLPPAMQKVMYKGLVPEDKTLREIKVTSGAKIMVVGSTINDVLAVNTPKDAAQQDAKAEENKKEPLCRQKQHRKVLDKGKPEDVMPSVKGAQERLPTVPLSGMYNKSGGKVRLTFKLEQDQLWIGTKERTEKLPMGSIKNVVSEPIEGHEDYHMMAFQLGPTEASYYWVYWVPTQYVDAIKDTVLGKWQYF
UniProt Q96RL1: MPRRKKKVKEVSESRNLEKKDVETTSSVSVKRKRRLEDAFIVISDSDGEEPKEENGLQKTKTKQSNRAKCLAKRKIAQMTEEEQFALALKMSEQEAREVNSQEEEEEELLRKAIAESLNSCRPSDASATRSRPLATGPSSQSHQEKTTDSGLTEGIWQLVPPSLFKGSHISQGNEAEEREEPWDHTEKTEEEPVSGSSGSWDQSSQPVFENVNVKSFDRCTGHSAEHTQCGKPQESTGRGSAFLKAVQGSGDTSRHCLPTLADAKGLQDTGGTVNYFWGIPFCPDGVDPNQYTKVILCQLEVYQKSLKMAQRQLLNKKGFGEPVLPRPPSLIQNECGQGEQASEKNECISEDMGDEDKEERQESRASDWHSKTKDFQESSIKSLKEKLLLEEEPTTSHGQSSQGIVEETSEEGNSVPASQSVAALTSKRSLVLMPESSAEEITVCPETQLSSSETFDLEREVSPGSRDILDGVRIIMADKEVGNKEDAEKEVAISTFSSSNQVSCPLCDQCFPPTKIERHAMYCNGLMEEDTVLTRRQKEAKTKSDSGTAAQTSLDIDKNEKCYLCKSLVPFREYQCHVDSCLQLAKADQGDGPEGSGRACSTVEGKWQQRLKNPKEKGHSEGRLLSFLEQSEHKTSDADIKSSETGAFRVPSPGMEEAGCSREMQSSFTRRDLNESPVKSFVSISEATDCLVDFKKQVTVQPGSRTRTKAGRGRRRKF
UniProt Q86UV5: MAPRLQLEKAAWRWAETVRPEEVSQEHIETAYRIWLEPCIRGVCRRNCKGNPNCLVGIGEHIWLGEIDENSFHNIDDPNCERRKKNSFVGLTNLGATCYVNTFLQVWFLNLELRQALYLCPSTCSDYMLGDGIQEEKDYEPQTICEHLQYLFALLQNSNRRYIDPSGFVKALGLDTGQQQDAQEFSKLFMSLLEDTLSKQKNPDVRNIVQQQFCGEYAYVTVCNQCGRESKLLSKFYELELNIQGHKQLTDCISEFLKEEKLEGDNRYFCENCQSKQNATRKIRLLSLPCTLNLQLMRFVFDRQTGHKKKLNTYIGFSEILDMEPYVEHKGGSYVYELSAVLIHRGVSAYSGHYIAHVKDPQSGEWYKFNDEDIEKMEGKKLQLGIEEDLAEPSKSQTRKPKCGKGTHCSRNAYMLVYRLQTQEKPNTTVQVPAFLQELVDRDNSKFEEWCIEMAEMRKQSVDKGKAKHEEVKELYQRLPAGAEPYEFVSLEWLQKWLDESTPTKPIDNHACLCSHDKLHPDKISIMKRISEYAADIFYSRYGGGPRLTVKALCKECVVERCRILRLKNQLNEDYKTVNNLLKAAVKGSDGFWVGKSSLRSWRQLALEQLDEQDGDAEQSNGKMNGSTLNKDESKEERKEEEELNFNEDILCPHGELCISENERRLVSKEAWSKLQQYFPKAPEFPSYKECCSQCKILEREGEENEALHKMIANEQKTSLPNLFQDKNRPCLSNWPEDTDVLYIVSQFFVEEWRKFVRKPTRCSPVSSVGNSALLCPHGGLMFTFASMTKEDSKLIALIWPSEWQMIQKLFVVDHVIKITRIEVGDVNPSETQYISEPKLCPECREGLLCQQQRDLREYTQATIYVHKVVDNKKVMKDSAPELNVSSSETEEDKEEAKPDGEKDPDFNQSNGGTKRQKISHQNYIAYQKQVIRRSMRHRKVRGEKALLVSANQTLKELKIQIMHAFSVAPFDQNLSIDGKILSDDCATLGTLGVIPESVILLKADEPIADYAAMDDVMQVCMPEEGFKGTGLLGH
UniProt Q8IX04: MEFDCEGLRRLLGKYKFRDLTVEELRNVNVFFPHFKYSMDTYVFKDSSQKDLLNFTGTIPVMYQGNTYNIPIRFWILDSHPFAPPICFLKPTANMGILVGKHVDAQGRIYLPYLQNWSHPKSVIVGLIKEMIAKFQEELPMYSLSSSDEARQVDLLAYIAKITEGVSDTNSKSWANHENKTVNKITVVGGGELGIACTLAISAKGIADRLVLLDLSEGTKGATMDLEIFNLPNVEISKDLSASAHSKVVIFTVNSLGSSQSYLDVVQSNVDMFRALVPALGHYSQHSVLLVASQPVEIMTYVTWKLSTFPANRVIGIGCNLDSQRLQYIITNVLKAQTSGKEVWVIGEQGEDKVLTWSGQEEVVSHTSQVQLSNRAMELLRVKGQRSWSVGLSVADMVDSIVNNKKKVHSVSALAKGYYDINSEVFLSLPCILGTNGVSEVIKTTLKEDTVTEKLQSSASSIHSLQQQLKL
UniProt Q93008, whole entry, looked up: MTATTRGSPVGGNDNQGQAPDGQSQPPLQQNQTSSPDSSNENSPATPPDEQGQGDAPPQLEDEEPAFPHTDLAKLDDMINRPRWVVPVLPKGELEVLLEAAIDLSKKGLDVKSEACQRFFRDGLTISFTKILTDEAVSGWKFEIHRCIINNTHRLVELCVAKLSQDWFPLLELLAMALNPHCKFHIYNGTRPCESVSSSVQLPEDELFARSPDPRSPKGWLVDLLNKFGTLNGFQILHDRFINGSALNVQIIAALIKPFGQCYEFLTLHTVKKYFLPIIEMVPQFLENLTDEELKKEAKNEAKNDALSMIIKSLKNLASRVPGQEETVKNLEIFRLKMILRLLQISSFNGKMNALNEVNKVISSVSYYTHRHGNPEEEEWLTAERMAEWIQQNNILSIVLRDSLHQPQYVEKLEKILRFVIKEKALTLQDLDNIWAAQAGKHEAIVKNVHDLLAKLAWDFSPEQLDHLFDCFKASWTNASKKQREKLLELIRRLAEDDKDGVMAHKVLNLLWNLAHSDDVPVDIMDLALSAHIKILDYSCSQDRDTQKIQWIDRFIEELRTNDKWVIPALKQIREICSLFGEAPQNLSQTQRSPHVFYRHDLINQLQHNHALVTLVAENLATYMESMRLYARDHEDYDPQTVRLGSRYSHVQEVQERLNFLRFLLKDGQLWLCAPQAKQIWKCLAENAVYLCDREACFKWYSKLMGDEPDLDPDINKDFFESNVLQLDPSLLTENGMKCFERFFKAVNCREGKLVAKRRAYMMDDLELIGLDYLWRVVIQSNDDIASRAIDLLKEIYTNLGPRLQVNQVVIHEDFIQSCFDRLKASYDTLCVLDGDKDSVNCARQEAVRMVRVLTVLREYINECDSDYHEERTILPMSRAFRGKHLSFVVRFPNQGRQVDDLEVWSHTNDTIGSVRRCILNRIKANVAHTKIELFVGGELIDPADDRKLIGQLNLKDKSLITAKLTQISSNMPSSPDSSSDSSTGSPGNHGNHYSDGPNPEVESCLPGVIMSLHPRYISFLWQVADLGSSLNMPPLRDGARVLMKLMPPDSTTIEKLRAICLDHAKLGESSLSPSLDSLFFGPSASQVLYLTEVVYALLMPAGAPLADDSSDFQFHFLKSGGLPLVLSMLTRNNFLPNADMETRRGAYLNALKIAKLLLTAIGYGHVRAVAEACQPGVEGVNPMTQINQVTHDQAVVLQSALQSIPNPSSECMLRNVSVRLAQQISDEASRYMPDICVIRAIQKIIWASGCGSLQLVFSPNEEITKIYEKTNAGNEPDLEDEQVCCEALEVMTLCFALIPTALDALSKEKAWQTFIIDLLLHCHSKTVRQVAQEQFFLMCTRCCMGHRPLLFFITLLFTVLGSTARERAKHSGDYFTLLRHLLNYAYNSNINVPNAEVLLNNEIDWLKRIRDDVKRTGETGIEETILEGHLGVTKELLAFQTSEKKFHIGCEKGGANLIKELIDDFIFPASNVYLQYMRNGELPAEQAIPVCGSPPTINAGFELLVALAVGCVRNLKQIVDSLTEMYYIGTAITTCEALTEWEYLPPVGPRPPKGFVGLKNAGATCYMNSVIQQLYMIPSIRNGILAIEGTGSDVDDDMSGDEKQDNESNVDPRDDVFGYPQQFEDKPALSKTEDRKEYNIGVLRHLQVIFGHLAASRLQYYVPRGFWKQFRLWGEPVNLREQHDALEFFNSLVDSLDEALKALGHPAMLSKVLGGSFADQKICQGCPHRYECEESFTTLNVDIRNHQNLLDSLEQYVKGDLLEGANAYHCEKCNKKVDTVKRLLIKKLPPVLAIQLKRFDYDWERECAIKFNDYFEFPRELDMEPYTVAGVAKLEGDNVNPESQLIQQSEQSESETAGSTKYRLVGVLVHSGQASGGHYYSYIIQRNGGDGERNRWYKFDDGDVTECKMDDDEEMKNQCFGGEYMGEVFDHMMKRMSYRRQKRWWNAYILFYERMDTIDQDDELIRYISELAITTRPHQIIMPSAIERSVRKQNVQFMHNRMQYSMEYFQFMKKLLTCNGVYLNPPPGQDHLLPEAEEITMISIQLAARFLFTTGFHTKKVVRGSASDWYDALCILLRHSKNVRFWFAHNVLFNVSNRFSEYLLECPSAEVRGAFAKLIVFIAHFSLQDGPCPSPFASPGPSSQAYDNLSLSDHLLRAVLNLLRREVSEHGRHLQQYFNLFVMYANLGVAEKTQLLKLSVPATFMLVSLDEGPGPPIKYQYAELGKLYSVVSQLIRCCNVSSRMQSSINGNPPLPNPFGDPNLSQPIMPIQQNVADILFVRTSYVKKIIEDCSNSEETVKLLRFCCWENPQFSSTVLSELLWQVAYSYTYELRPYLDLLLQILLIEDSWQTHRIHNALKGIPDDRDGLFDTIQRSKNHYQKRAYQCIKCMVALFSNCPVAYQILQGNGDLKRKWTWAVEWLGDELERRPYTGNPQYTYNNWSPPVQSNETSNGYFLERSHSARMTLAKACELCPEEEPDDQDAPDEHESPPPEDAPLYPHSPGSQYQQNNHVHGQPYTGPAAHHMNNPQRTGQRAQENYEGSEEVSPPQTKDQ

What was measured:
Assay in all cases: log2 fold change, soluble protein after heating vs DMSO (PISA); higher = thermal stabilisation; K562 cells, 10 uM, 30 min; active = over 0.2 and 3.5 SD of the protein, either way, in both replicates (recomputed)
erlotinib = compound: C#Cc1cccc(Nc2ncnc3cc(OCCOC)c(OCCOC)cc23)c1 [erlotinib]
Outline: (§1)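 Aliquots of K562 cells (2×10^6 cells/mL) treated with 10 μM compound for 30 min were heated for 3 min over 48°C-58°C. After pooling and extraction in PBS with 0.5% NP-40 at 4°C, soluble protein from a 21,000xg, 90 min spin was quantified by TMTpro 16plex LC-MS/MS with channel sums equalised. Thermal stability is expressed against control samples, from duplicates, as a log2 fold change.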

[1] = compound: C/C(=N\NC(=O)C1=CC(=CC=C1)S(=O)(=O)N2CCOCC2)/C3=C(C=CC(=C3)Cl)O
Outline: as §1

[2] = compound: C1=CC(=C(C=C1Cl)C2=NC3=NC=CN=C3C(=N2)NC4=CC=NC=C4)F
Outline: as §1

[3] = compound: C1=CC(=CC=C1C2=NC3=C(N2)C=C(C=C3)C(=O)N)OC4=CC=C(C=C4)Cl
Outline: as §1

[4] = compound: C1=CC2=C(C=CC(=C2)/C=C\3/C(=O)NC(=NCC4=CC=CS4)S3)N=C1
Outline: as §1

[5] = compound: C1=CC2=NC=CN=C2C=C1/C=C/3\C(=O)NC(=O)S3
Outline: as §1

[6] = compound: C1=CC=C(C=C1)C2=NC(=C(N2)C3=CC=NC=C3)C4=CC(=C(C=C4)Cl)O
Outline: as §1

[7] = compound: C1=CC=C2C(=C1)C3=NNC4=CC=CC(=C43)C2=O
Outline: as §1

[8] = compound: C1CCN(C1)C(=O)NC2=CC=CC(=C2)NC3=NC=C(C(=N3)NCCC4=CN=CN4)Br
Outline: as §1

[9] = compound: C1CN(CCC1(CC2=CC=C(C=C2)Cl)N)C3=NC=NC4=C3C=CN4
Outline: as §1

Measured: log2 fold change

VAPA (UniProt Q9P0L0)
inactive: erlotinib -0.034 | [1] -0.034 | [2] 0.023 | [3] -0.064 | [4] -0.017 | [5] 0.063 | [6] 0.033 | [7] 0.099 | [8] -0.007 | [9] 0.05

UCKL1 (UniProt Q9NWZ5)
inactive: erlotinib 0.037 | [1] 0.051 | [2] -0.007 | [3] 0.027 | [4] 0.053 | [5] -0.001 | [6] 0.085 | [7] 0.006 | [8] -0.012 | [9] 0.002

UQCRC1 (UniProt P31930)
inactive: erlotinib 0.008 | [1] -0.008 | [2] 0.058 | [3] -0.022 | [4] -0.003 | [5] 0.053 | [6] -0.031 | [7] -0.028 | [8] 0.01 | [9] 0.064

USP8 (UniProt P40818)
inactive: erlotinib 0.131 | [1] 0.088 | [2] -0.034 | [3] -0.042 | [4] 0.164 | [5] 0.027 | [6] -0.018 | [7] 0.023 | [8] -0.15 | [9] -0.025

USP22 (UniProt Q9UPT9)
inactive: erlotinib 0.009 | [1] 0.101 | [2] 0.045 | [3] 0.046 | [4] 0.002 | [5] 0.15 | [7] -0.014 | [8] -0.059 | [9] 0.043

UPF1 (UniProt Q92900)
inactive: erlotinib -0.003 | [1] 0.043 | [2] -0.011 | [3] -0.003 | [4] 0.016 | [5] -0.03 | [6] -0.004 | [7] -0.019 | [8] -0.01 | [9] -0.021

UBR4 isoform 2 (UniProt Q5T4S7)
inactive: erlotinib -0.05 | [1] 0.016 | [2] -0.051 | [3] -0.021 | [4] -0.002 | [5] -0.001 | [6] 0.041 | [7] 0.019 | [8] -0.015 | [9] -0.095

UBFD1 (UniProt O14562)
inactive: erlotinib -0.025 | [1] 0.052 | [2] 0.055 | [3] 0.007 | [4] -0.012 | [5] 0.019 | [6] -0.006 | [7] 0.02 | [8] -0.025 | [9] -0.037

UIMC1 (UniProt Q96RL1)
inactive: erlotinib -0.07 | [1] -0.111 | [2] -0.214 | [3] 0.044 | [4] 0.001 | [5] -0.059 | [6] -0.085 | [7] -0.016 | [8] 0.022 | [9] -0.122

USP48 isoform 8 (UniProt Q86UV5)
inactive: erlotinib 0.114 | [1] 0.186 | [2] 0.14 | [3] -0.033 | [4] 0.028 | [5] -0.013 | [6] 0.049 | [7] -0.049 | [8] -0.103 | [9] -0.029

UEVLD (UniProt Q8IX04)
inactive: erlotinib 0.081 | [1] -0.058 | [2] 0.073 | [3] 0.035 | [4] 0.037 | [5] 0.174 | [7] 0.022 | [8] -0.118 | [9] 0.03

VCL (UniProt P18206)
inactive: erlotinib 0.009 | [1] -0.014 | [2] 0.066 | [3] -0.009 | [4] -0.042 | [5] 0.023 | [6] 0.031 | [7] -0.016 | [8] 0.004 | [9] 0.049

USP9X (UniProt Q93008)
inactive: erlotinib 0.012 | [1] 0.06 | [2] -0.012 | [3] -0.029 | [4] 0.026 | [5] 0.008 | [6] 0.013 | [7] -0.033 | [8] 0.002 | [9] -0.002

2 neighbouring entries from above, quoted:
VCL (UniProt P18206)
inactive: erlotinib 0.009 | [1] -0.014 | [2] 0.066 | [3] -0.009 | [4] -0.042 | [5] 0.023 | [6] 0.031 | [7] -0.016 | [8] 0.004 | [9] 0.049

USP9X (UniProt Q93008)
inactive: erlotinib 0.012 | [1] 0.06 | [2] -0.012 | [3] -0.029 | [4] 0.026 | [5] 0.008 | [6] 0.013 | [7] -0.033 | [8] 0.002 | [9] -0.002

Next entries follow.

UNC13D isoform 3 (UniProt Q70J99)
inactive: erlotinib 0.174 | [1] -0.022 | [2] -0.11 | [3] -0.028 | [4] 0 | [5] 0.05 | [6] 0.024 | [7] -0.039 | [8] -0.133 | [9] -0.174
